Record: PubChem BioAssay AID743454 (Peter MacCallum Cancer Centre, 2014)
The whole screen tested about 18,000 reagents; below is a random part of them. 450 of them (2.5%) were called active. 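Single biological run; no consistent viability z cut-off exists, so the class columns, not z-scores, define the calls.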 Entries without a mark were called inactive.

Test: 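Search for knock-downs that restore vorinostat killing in resistant colon cancer cells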 (primary screen)
Cell system: human HCT116-VR colon cancer cells, selected for vorinostat resistance
Reagent: siRNA pool against human genes, 40 nM siRNA pool
Timing: vorinostat for 24 h, read-out about 72 h after transfection
Challenge: vorinostat at 2.5 µM final
Read-out: 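Cell viability by CellTiter-Fluor and caspase 3/7 activity by luminescence, each scaled to mock wells per plate, duplicates averaged, then robust z-scored over all plates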
Reading the numbers: viability robust z-score: higher = more viable cells than screen typical; caspase robust z-score: higher = more caspase 3/7 activity than screen typical
Rule for the call: 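a knock-down is a hit when classed RV1 or RV2 for lowered viability, or CA1 or CA2 for caspase activation; those lethal without drug were dropped; hits were retested singly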

The first 4 entries, ahead of the listing:
gene	PubChem SID	viability hit class	caspase hit class	viability robust z-score	caspase robust z-score
INTS3 (integrator complex subunit 3)	SID134322223	no change	no change	-0.19	-0.36
OBSCN	SID56479016	no change	no change	-1.15	-1
OBSCN	SID152156356	no change	no change	-0.63	0.08
LRSAM1 (leucine rich repeat and sterile alpha motif containing 1)	SID152155053	no change	no change	0.6	2.79

The listing, repeating the preview:
gene	PubChem SID	viability hit class	caspase hit class	viability robust z-score	caspase robust z-score
INTS3 (integrator complex subunit 3)	SID134322223	no change	no change	-0.19	-0.36
OBSCN	SID56479016	no change	no change	-1.15	-1
OBSCN	SID152156356	no change	no change	-0.63	0.08
LRSAM1 (leucine rich repeat and sterile alpha motif containing 1)	SID152155053	no change	no change	0.6	2.79
PISD (phosphatidylserine decarboxylase)	SID134314280	no change	no change	-3.49	0.46
CARS1 (cysteinyl-tRNA synthetase 1)	SID152150146	no change	no change	-0.8	-0.12
NLN (neurolysin)	SID152150314	no change	no change	-1.33	3.66
BEST2 (bestrophin 2)	SID152153101	no change	no change	1.67	-0.38
SERPINB8 (serpin family B member 8)	SID135623745	no change	no change	-0.27	-0.82
CAND1 (cullin associated and neddylation dissociated 1)	SID134319598	no change	no change	0.39	1.68
OR2S2 (olfactory receptor family 2 subfamily S member 2)	SID135624062	no change	no change	-1.04	0.82
HCN1	SID152151741	no change	no change	0.96	-0.14
SSRP1 (structure specific recognition protein 1)	SID135622195	no change	no change	-0.76	0.5
KLK2 (kallikrein related peptidase 2)	SID152148572	no change	no change	0.94	0.39
DKK1 (dickkopf Wnt signaling pathway inhibitor 1)	SID152147076	no change	no change	0.83	-0.72
IFNGR1 (interferon gamma receptor 1)	SID134315421	no change	no change	-0.64	-0.56
HRCT1 (histidine rich carboxyl terminus 1)	SID135625520	no change	no change	1.46	0.82
TMSB10 (thymosin beta 10)	SID135623397	no change	no change	0.36	0.12
OR10A5 (olfactory receptor family 10 subfamily A member 5)	SID134313607	no change	no change	-1.85	-0.84
PRICKLE1 (prickle planar cell polarity protein 1)	SID134320658	no change	no change	-0.55	-0.82
CHST14 (carbohydrate sulfotransferase 14)	SID134313674	no change	no change	0.2	-0.64
VPREB1 (V-set pre-B cell surrogate light chain 1)	SID152147113	no change	no change	0.84	-0.57
LRRC32 (leucine rich repeat containing 32)	SID134316396	no change	no change	-0.38	2.22
UBE2C (ubiquitin conjugating enzyme E2 C)	SID135620868	no change	no change	0.3	0.28
SKA2 (spindle and kinetochore associated complex subunit 2)	SID135623592	no change	no change	1.62	-0.68
HM13 (histocompatibility minor 13)	SID135621096	no change	no change	-1.02	0.78
RIPK3 (receptor interacting serine/threonine kinase 3)	SID152154350	no change	no change	-0.82	-0.34
KRTAP6-2 (keratin associated protein 6-2)	SID134321891	no change	no change	0.04	-0.24
COG3 (component of oligomeric golgi complex 3)	SID134317723	no change	no change	0.94	-0.1
NPRL2 (NPR2 like, GATOR1 complex subunit)	SID152150533	no change	no change	-0.63	1.05
PRELP (proline and arginine rich end leucine rich repeat protein)	SID135620725	no change	no change	0.4	-0.53
LTBP3 (latent transforming growth factor beta binding protein 3)	SID134318321	no change	no change	-0.82	4.43
ANKS1B (ankyrin repeat and sterile alpha motif domain containing 1B)	SID135621520	no change	no change	0.28	2.57
ZNF530 (zinc finger protein 530)	SID134318309	no change	no change	1.19	-0.82
PGA3 (pepsinogen A3)	SID135625471	no change	no change	-0.23	-0.33
TTYH3 (tweety family member 3)	SID152154458	no change	no change	-0.15	1.27
TOGARAM1 (TOG array regulator of axonemal microtubules 1)	SID152151470	no change	no change	1.35	-0.62
DENND2C (DENN domain containing 2C)	SID152150709	no change	no change	0.7	-0.42
OR6C2 (olfactory receptor family 6 subfamily C member 2)	SID134329984	no change	no change	-1.01	0.12
